For part of its entries the source gives two or more results. The list is limited to them. The source may hold further records. Results that share an entry differ, and nothing given here explains why; they may come from other doses, times, organisms or constructs than stated.
Target: purified human FAS (Homo sapiens, UniProt P49327)
Assay: FAS enzymatic activity (malonyl-CoA dependent NADPH oxidation, OD340)
Conditions: purified human FAS from ZR-75-1 cells
Protocol: Purification of FAS from ZR-75-1 Human Breast Cancer Cells.
Human FAS was purified from cultured ZR-75-1 human breast cancer cells obtained from the American Type Culture Collection. The procedure, adapted from Linn et al., 1981, and Kuhajda et al., 1994, utilizes hypotonic lysis, successive polyethyleneglycol (PEG) precipitations, and anion exchange chromatography. ZR-75-1 cells are cultured at 37° C. with 5% CO2 in RPMI culture medium with 10% fetal bovine serum, penicillin and streptomycin.
Ten T150 flasks of confluent cells are lysed with 1.5 ml lysis buffer (20 mM Tris-HCl, pH 7.5, 1 mM EDTA, 0.1 mM phenylmethanesulfonyl fluoride (PMSF), 0.1% Igepal CA-630) and dounce homogenized on ice for 20 strokes. […] FAS protein concentration is determined using the Coomassie Plus Protein Assay Reagent (Pierce) according to manufacturer's specifications using BSA as a standard. […]
FAS activity is measured by monitoring the malonyl-CoA dependent oxidation of NADPH spectrophotometrically at OD340 in 96-well plates (Dils et al and Arslanian et al, 1975). […]
The assay is performed on a Molecular Devices SpectraMax Plus Spectrophotometer. […] Using the kinetic protocol, the wells are blanked on duplicate wells containing 100 μl of 100 mM K2HPO4, pH 6.5 and the plate is read at OD340 at 10 sec intervals for 5 minutes to measure any malonyl-CoA independent oxidation of NADPH. […]

The chains behind the UniProt entries cited, without tags or fusion partners.
UniProt P49327, whole entry: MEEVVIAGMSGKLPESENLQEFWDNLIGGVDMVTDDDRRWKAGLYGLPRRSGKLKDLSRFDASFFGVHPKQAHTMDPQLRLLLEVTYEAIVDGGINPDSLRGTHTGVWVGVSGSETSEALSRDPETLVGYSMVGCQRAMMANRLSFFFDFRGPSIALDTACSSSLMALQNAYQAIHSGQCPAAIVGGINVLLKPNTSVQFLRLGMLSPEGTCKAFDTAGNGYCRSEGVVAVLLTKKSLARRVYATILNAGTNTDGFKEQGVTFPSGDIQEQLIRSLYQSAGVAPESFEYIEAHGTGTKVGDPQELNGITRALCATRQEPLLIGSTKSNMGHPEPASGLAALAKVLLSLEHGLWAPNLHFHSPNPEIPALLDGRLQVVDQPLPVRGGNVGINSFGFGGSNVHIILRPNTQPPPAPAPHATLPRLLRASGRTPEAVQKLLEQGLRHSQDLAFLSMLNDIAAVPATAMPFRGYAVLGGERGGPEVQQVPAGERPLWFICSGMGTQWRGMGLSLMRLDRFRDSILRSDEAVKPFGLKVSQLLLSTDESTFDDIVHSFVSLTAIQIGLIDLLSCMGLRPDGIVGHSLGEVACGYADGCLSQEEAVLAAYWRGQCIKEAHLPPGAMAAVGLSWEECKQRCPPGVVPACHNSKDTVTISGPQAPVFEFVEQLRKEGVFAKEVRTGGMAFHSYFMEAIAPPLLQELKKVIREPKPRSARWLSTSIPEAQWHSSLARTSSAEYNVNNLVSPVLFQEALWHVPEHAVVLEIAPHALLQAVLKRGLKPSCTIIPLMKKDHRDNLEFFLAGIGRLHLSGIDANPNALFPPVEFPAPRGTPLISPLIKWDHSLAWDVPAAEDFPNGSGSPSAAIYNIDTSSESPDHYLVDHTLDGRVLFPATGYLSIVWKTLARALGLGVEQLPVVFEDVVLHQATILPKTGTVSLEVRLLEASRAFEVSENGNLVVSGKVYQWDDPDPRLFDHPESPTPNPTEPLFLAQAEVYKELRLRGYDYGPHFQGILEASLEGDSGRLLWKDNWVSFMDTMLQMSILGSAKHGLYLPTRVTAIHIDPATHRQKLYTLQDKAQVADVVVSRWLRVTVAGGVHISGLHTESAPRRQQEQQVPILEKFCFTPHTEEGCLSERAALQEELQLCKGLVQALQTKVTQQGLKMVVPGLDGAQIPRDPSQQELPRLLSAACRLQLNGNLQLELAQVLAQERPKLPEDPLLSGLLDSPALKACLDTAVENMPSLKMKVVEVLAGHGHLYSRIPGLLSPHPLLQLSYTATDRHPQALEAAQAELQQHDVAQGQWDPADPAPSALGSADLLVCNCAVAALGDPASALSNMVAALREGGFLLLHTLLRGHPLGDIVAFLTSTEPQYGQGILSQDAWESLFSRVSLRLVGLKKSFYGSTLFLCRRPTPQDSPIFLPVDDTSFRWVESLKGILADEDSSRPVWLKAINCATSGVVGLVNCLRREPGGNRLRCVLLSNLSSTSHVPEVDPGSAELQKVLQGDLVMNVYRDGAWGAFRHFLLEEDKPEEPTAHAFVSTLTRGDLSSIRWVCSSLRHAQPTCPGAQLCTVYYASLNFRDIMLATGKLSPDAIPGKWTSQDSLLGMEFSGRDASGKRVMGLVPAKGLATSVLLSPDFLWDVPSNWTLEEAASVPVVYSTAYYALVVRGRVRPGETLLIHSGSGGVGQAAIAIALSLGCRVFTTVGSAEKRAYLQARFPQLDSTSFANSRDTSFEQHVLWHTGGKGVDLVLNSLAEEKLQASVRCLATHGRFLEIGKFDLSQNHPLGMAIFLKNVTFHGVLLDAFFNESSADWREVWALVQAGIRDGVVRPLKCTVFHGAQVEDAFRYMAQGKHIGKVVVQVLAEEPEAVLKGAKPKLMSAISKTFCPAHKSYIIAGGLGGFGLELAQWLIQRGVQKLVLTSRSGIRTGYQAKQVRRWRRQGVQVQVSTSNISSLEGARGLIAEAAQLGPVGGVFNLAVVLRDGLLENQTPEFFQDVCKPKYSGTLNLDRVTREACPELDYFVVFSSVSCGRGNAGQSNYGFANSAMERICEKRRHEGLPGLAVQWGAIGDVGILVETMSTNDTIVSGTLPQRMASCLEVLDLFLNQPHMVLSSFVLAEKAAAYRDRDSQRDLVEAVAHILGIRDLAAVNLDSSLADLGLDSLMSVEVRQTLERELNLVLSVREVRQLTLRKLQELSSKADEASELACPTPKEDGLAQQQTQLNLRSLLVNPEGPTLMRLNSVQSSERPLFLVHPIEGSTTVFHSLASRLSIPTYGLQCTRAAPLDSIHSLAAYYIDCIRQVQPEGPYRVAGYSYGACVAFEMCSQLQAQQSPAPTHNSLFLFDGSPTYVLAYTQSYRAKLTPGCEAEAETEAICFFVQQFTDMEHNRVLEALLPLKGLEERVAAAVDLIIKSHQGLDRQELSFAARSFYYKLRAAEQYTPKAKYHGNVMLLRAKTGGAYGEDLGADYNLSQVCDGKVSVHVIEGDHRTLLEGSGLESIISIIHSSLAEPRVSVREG

`CCCCCCCCC1(C)SC(=O)C=C1OCC(=O)NNc1ccc(Cl)cc1` (stereo not shown) was tested, and the “FAS (IC50)” value was “Neg and 237 ± 43 ug/ml”.

From patent publication US20100168176A1, “NOVEL COMPOUNDS, PHARMACEUTICAL COMPOSITIONS CONTAINING SAME, AND METHODS OF USE FOR SAME” (FASGEN LLC, priority 2006, published 2010)
